Source: paper PMC9046089, “CCNE1 amplification is synthetic lethal with PKMYT1 kinase inhibition” (Nature, 2022)
Where “and” joins values, the source holds several entries; their conditions need not be identical. Identical values can stand only once. Like-named read-outs stand apart in the source and are kept apart here.

Assays:
Assay type in all cases: cell-based
[1] = tested on: OVCAR3 cells; assay: Cell proliferation assay (Incucyte growth inhibition); conditions: 3 replicates
Excerpt: (§1) . Per cent confluence relative to a non-treated control was used to evaluate growth inhibition induced by test compounds. […] (https://synergyfinder.fimm.fi).

[2] = tested on: KYSE30 cells; assay: as above; conditions: 3 replicates
Excerpt: as §1

[3] = tested on: NUGC3 cells; assay: as above; conditions: 3 replicates
Excerpt: as §1

[4] = tested on: SUM149PT cells; assay: as above
Excerpt: as §1

[5] = tested on: DOTC24510 cells; assay: as above; conditions: Homo sapiens, DoTc2-4510, read-out: EC50 for growth inhibition
Excerpt: as §1

[6] = tested on: SNU8 cells; assay: as above
Excerpt: as §1

[7] = tested on: COV362 cells; assay: as above; conditions: 3 replicates
Excerpt: as §1

[8] = tested on: TOV112D cells; assay: as above; conditions: Homo sapiens, read-out: EC50 for growth inhibition
Excerpt: as §1

[9] = tested on: HCC1569 cells; assay: Cell proliferation assay (Incucyte growth inhibition, synergy); conditions: 3 replicates
Excerpt: as §1

Structure (SMILES): CCc1cnn2c(NCc3ccc[n+]([O-])c3)cc(N3CCCC[C@H]3CCO)nc12 [dinaciclib]
- EC50 ([1]; Homo sapiens, OVCAR-3, read-out: EC50 for growth inhibition, OVCAR3): 7 nM
- EC50 ([1]; read-out: EC50 for growth inhibition, OVCAR3): 9 nM and 6.6 nM
- EC50 ([2]; Homo sapiens, KYSE-30, read-out: EC50 for growth inhibition, KYSE30): 7 nM
- EC50 ([2]; read-out: EC50 for growth inhibition, KYSE30): 6 nM
- EC50 ([3]; Homo sapiens, NUGC-3, read-out: EC50 for growth inhibition, NUGC3): 9 nM
- EC50 ([3]; read-out: EC50 for growth inhibition, NUGC3): 10 nM and 8 nM
- EC50 ([4]; Homo sapiens, read-out: EC50 for growth inhibition, SUM149PT, 3 replicates): 7 nM
- EC50 ([4]; read-out: EC50 for growth inhibition, 3 replicates): 8 nM
- EC50 [5]: 9 nM
- EC50 ([6]; read-out: EC50 for growth inhibition, SNU8; 3 replicates): 9 nM
- EC50 ([6]; read-out: EC50 for growth inhibition; SNU8; 3 replicates): 10 nM
- EC50 ([7]; COV362, COV362): 11 nM
- EC50 ([7]; COV362): 10 nM
- EC50 [8]: 8 nM
- EC50 ([9]; Homo sapiens, HCC1569, read-out: EC50 for growth inhibition, HCC1569): 7 nM
- EC50 ([9]; read-out: EC50 for growth inhibition, HCC1569): 6 nM
